According to article PMC7819943, “Rice protein-binding microarrays: a tool to detect cis-acting elements near promoter regions in rice”:
The list shows a part of the results.

target: T1, OsSMF1 (Oryza sativa, UniProt Q6ZLB0 1-436); experiment: protein-binding microarray (RPBM); PBS, 2% BSA, 51.3 ng/ul salmon testes DNA, 50 uM zinc acetate, 200 nM TF, 25 C, 1 h; high values mean tight binding; conditions: protein: recombinant; tags: N-terminal polyhistidine and DsRed monomer fusion (pET32a); chain copies: 2; label: CyDye5-dUTP incorporated in the synthesized complementary strand; 3' TTTTT single-stranded linker to array surface; dsDNA, one strand shown
T1 sequence: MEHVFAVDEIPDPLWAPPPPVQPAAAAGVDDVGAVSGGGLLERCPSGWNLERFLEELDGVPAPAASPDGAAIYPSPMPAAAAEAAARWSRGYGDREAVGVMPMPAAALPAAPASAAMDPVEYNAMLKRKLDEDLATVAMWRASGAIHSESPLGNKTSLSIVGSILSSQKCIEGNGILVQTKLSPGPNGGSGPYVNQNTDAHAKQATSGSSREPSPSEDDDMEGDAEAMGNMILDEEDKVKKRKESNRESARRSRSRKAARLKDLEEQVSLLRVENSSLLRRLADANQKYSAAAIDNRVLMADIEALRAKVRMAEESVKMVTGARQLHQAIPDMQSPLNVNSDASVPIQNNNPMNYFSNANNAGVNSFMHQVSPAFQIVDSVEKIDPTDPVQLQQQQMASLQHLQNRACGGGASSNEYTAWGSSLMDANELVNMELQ
How it was run: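 Using Ni–NTA, transcription factors fused N-terminally to polyhistidine and DsRed were purified after expression in E. coli BL21-CodonPlus. These were incubated at 200 nM with a blocked, double-stranded custom Agilent array for 1 h at 25 °C in a buffer containing 50 µM zinc acetate, and the array was washed. The binding signal is per-feature fluorescence intensity (arbitrary units) on an Axon 4000B scanner.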

Sequence	binding signal
AACCCATGCCCACGTGTACTACGTAATTATCCTCTATTGTCGGAGTCACCTAGTGCAG	15600 fluorescence intensity (a.u.)
TACCCACGCTGACTGCCTCGGCGTCCTTCCCTCTCGACATCGGAGTCACCTAGTGCAG	3640 fluorescence intensity (a.u.)
TCACCACGGGACCCTCTATCCCTCGGCACCATCCGCCGATCGGAGTCACCTAGTGCAG	22400 fluorescence intensity (a.u.)
ACCACTTGGCAAACTCCCCAAGCGGCCACGCTCGTCACGACGGAGTCACCTAGTGCAG	3800 fluorescence intensity (a.u.)
TGCCACCCGTCCGACGTGGCGTCCCCATCCCACTTACTTGCGGAGTCACCTAGTGCAG	19700 fluorescence intensity (a.u.)
TGCGGGGACACGTCCGCCACCAGGATGGGCTGTGTTGGGCCGGAGTCACCTAGTGCAG	6130 fluorescence intensity (a.u.)
TACATTTGCAGGTATATATAAGTGTGATGTGTGAGCTCGTCGGAGTCACCTAGTGCAG	3920 fluorescence intensity (a.u.)
CTGCTTTACTCTACGACAATTTACGGTGGATTTTGGGTCTCGGAGTCACCTAGTGCAG	3260 fluorescence intensity (a.u.)
GCATCCTCATCCGCCTCAAGGAAGGTTCATGGATAACGTCCGGAGTCACCTAGTGCAG	31200 fluorescence intensity (a.u.)
CTAGTTTTGACTCACCGACCATTGCCCTTCTCCCTCTCCGCGGAGTCACCTAGTGCAG	5570 fluorescence intensity (a.u.)
GTAGAGGGGTAGAAATGCACGGCCAACTCAGAACATCCGTCGGAGTCACCTAGTGCAG	3630 fluorescence intensity (a.u.)
ACATCCTGATGACTAGTGCATAGCAACGCAAAATCTAATACGGAGTCACCTAGTGCAG	12300 fluorescence intensity (a.u.)
AAAGAGAAGTTAAATATGACGAGAAAAGTTGTCACGGTAGCGGAGTCACCTAGTGCAG	17000 fluorescence intensity (a.u.)
GTCGAGTTTGAAATTCATCCCTAAATTGAAATACTATATACGGAGTCACCTAGTGCAG	6610 fluorescence intensity (a.u.)
CGCTGGCACGCACGGTGGCACGCCACGTTGGCAAAAGTGGCGGAGTCACCTAGTGCAG	7980 fluorescence intensity (a.u.)
TGTGCCCTCTCCCCTTTCAGCTTCCTCCATCGCGCCTCTCCGGAGTCACCTAGTGCAG	3450 fluorescence intensity (a.u.)
AATCTTATATATATGAACATTATATAGTACTATGAATCTGCGGAGTCACCTAGTGCAG	5570 fluorescence intensity (a.u.)
CAGCTCAGCCGGGAGAGTCAGATCACCACATCAGTGCGTGCGGAGTCACCTAGTGCAG	25300 fluorescence intensity (a.u.)
CGGTGGTGACGTTGGAGAAGGAGGCGGCTCGCAGACCGGGCGGAGTCACCTAGTGCAG	3450 fluorescence intensity (a.u.)
GCGTTCATGTCCACTGATGACTCAGCGATTTCTGAATCACCGGAGTCACCTAGTGCAG	16700 fluorescence intensity (a.u.)
ATCCGCTCGCGGCGGCCGGCCCCACGACGCCGACGCGCCACGGAGTCACCTAGTGCAG	4060 fluorescence intensity (a.u.)

Reformatted: results already given.
Sequence | binding signal
CTGCTTTACTCTACGACAATTTACGGTGGATTTTGGGTCTCGGAGTCACCTAGTGCAG | 3260 fluorescence intensity (a.u.)
GCATCCTCATCCGCCTCAAGGAAGGTTCATGGATAACGTCCGGAGTCACCTAGTGCAG | 31200 fluorescence intensity (a.u.)

Continuation.

Sequence	binding signal
CGTTGATATAAAGACCAGTGTCATACCACGCCAAGATTCTCGGAGTCACCTAGTGCAG	4610 fluorescence intensity (a.u.)
GCCGGCCTCCACGTTCGGGAGGAACGACAAGATGTGGCCCCGGAGTCACCTAGTGCAG	3800 fluorescence intensity (a.u.)
TTATATTATGGCAATGATGCCTCTTGTACAAAGGGAACCGCGGAGTCACCTAGTGCAG	19200 fluorescence intensity (a.u.)
CCATGTTGACCGCCACCTCACCTCCTCCCCTTCCCTTCCCCGGAGTCACCTAGTGCAG	12900 fluorescence intensity (a.u.)
TTTCCTGTTCGGTGTTGATGACAGCTCACTGTACATGATCCGGAGTCACCTAGTGCAG	5560 fluorescence intensity (a.u.)
TCTCCGACTTGTCGACCGCCTCCGCGTGTGCCGACGGCTTCGGAGTCACCTAGTGCAG	21200 fluorescence intensity (a.u.)
CGAACTTTTGTCAATTAATGCCAATATTAGCACACGTGGTCGGAGTCACCTAGTGCAG	5000 fluorescence intensity (a.u.)
CCCGACCTCAACGACGACCATAACAATAGTGTGCATGACGCGGAGTCACCTAGTGCAG	3620 fluorescence intensity (a.u.)
AAGGAAGTCGTTTTGGACAGCGACACAGTCTCTAAAACACCGGAGTCACCTAGTGCAG	58900 fluorescence intensity (a.u.)
ACGACGACTCACTAGTCTTCACGCTCCACATCCTCCTCCACGGAGTCACCTAGTGCAG	3850 fluorescence intensity (a.u.)
GAGAAGAAGGCCACCTCACCACTAAAGGAGGAGGAGGAGGCGGAGTCACCTAGTGCAG	43500 fluorescence intensity (a.u.)
GCCCACAAGCGCTCGGCTCGAAACGCCACGTCACCACGCTCGGAGTCACCTAGTGCAG	43800 fluorescence intensity (a.u.)
AATCCAATCCACCGTGGCATTTTCTGTGGCTCAAGCTTTGCGGAGTCACCTAGTGCAG	10100 fluorescence intensity (a.u.)
GACCTGTGACGACGTTGCTTGCCGCCTTGATGAGTCACTGCGGAGTCACCTAGTGCAG	9950 fluorescence intensity (a.u.)
TTCCTTTAATATGCACCCACCAGCTGTCAAGTCAGCGCCTCGGAGTCACCTAGTGCAG	4190 fluorescence intensity (a.u.)
GCCCAAGTTGAGGCCCAACTTGTCAGCCATCACTAAAAGCCGGAGTCACCTAGTGCAG	3290 fluorescence intensity (a.u.)
GCCAAACACATTGGCGCTGACATTGGCCGTGTCAGCGCCACGGAGTCACCTAGTGCAG	9140 fluorescence intensity (a.u.)
CAGCGGTCCTTCCCGCTGACGGAGGAGGAGTACCTGCTCCCGGAGTCACCTAGTGCAG	3700 fluorescence intensity (a.u.)
GGATGAAATTAGCCCATCAGCAATTACGTGTAGGCCGTAGCGGAGTCACCTAGTGCAG	6580 fluorescence intensity (a.u.)
ACAGATACGGACACTTCTTTGTTGAACCGTCCGGGTGACGCGGAGTCACCTAGTGCAG	22600 fluorescence intensity (a.u.)
CTAGGCTTTCCTCTGTTGCTTGGTTGCATTGCATGCTTCTCGGAGTCACCTAGTGCAG	38900 fluorescence intensity (a.u.)
